The exact form of at least one protein or probe is not confirmed. Protein sequences can lack the tags named with them.
Molecular target: T1, SA2 (STAG2), full length (human) (UniProt Q8N3U4)
T1 sequence (looked up): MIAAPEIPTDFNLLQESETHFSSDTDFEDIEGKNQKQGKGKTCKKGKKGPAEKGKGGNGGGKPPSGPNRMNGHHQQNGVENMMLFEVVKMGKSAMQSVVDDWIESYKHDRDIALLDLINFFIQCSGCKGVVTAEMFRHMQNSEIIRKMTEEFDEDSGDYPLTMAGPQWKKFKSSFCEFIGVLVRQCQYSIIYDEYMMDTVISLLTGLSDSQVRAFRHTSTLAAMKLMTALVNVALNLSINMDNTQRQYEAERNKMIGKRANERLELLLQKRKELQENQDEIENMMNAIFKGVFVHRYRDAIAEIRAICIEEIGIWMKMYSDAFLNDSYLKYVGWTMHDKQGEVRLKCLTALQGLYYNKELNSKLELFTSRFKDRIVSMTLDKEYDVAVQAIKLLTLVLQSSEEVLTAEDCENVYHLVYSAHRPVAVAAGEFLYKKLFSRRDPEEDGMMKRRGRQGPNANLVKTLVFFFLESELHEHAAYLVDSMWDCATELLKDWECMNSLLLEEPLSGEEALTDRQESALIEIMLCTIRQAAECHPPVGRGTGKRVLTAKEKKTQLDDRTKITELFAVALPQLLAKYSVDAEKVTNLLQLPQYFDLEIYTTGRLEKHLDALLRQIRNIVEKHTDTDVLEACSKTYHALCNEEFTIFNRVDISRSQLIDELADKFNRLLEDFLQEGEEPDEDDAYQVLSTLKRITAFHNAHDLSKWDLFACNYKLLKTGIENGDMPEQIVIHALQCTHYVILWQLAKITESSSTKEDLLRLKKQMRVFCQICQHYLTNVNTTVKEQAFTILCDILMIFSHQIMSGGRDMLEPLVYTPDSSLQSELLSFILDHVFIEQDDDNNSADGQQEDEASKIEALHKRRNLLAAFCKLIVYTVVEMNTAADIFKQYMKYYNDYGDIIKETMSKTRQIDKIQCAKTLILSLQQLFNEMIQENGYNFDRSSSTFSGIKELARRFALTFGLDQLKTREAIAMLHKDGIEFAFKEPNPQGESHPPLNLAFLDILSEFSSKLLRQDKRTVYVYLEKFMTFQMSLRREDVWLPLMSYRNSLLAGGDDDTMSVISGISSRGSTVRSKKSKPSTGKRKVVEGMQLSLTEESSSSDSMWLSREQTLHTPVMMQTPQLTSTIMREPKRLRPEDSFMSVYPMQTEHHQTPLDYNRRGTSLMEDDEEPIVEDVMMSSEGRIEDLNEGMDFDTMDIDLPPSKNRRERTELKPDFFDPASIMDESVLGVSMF
Test: fluorescence anisotropy
Conditions: Anisotropy: 20 mM Hepes pH 7.5, 0.1 mM MgCl2, 0.5 mM DTT, 100 mM KCl, 1 nM DNA, recombinant protein, residues 1-1231, protein details: 6xHis, label: 5' Alexa 488 on strand 1

| Sequence | Kd (folded or branched DNA) [nM] | Kd [nM] |
| --- | --- | --- |
| TGTCGCATAGTGTAGTCGGTCTTGTTCGGTCATAGCTCATCGTGG / CCACGATGAGCTATGACCGAACAA / ACTCTGTTCATCGTCATCTGCGACCGACTACACTATGCGACA [flap] | 104 | – |
| TGTCGCATAGTGTAGTCGGTCTTGTTCGGTCATAGCTCATCGTGG / CCACGATGAGCTATGACCGAACAA [overhang] | – | 56.4 |
| TGTCGCATAGTGTAGTCGGTCTTGTTCGGTCATAGCTCATCGTGG / CCACGATGAGCTATGACCGAATGCCGAATTCTACCAGTGCCAGTG [fork] | – | 58.4 |

From publication PMC5777247, “Cohesin SA2 is a sequence-independent DNA-binding protein that recognizes DNA replication and repair intermediates”
